No constants are given. Whether binding was seen depends on the method and setting. Some entries that bind do so weakly or less than the wild type. For some assays here: Where a sequence is shown, tags or fusion partners need not be part of it.
Legend:
[1] = molecular target: T1, human topoisomerase IIIα fused with the LexA protein (plasmid pLex-TopoIIIα) (human) (UniProt Q13472); assay: yeast two-hybrid screen of a HeLa cDNA library, LexA-topoisomerase IIIα bait, strain L40, His3 and LacZ reporters
T1 sequence (looked up): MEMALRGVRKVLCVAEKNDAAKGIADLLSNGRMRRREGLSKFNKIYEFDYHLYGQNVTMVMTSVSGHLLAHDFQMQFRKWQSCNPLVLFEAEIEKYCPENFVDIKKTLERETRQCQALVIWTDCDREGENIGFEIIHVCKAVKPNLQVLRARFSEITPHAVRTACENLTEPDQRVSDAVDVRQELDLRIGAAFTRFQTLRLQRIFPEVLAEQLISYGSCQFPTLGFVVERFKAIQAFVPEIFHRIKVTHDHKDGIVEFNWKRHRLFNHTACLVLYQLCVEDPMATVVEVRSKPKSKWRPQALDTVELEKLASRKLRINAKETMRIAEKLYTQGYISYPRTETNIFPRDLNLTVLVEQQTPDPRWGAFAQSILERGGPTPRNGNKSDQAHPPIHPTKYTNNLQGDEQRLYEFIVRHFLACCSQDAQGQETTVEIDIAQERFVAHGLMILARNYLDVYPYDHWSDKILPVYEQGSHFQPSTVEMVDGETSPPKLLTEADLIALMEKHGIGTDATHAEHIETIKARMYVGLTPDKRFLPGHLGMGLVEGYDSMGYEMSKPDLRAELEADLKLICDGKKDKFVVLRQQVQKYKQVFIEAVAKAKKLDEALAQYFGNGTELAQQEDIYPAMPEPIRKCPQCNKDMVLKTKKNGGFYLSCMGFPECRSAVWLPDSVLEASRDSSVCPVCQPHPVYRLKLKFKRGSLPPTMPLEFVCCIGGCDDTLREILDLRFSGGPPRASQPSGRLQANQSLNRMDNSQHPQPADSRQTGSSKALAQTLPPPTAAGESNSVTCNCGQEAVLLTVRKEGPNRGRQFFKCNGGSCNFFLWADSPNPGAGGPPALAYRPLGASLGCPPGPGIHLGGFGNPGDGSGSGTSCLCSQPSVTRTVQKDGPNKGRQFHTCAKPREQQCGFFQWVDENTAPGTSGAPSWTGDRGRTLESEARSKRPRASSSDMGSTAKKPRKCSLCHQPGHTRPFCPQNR

Chains of the proteins cited; added tags and fusions are not shown. Lines headed by an entry give the natural chain unless they say otherwise; changes in a name come on top.
UniProt O00571: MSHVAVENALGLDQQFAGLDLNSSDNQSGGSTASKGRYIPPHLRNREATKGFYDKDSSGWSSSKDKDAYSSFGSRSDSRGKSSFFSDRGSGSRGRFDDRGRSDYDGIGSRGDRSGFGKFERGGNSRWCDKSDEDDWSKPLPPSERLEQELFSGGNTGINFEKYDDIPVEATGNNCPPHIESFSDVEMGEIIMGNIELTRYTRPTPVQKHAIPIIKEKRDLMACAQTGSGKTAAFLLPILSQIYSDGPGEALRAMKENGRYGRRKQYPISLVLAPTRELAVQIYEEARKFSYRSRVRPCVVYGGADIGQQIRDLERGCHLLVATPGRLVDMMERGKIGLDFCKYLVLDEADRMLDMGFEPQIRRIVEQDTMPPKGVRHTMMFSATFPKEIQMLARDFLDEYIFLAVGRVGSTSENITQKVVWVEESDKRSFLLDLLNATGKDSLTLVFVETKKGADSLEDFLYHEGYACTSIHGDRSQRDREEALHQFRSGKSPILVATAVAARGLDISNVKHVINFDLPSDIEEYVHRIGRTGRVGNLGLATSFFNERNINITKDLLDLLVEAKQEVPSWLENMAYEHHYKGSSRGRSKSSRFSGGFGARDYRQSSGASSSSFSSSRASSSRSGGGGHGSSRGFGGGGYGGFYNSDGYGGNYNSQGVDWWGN

[2] = molecular target: human topoisomerase IIIα fused with the DNA-binding domain of GAL4 (plasmid pGBT-TopoIIIα) (human) (UniProt P04386+Q13472); assay: yeast two-hybrid, GAL4 DB-topoisomerase IIIα bait, strain yCM17, β-Gal activity test

polypeptide encoded by the plasmid isolated during the screening of the Hela cell two-hybrid cDNA library (cloned fragment SEQ ID No. 3 encoding SEQ ID No. 4), fused with the transactivating domain of GAL4 (vector pGAD GH) (from UniProt O00571 318-662)
binding [1]: binds
binding [2]: binds
